Results from PubChem BioAssay AID624291 (National Center for Advancing Translational Sciences (NCATS), 2012).
Screen size: about 350,000 compounds; about 220 (0.063%) were called active. The shares of active, inactive and inconclusive entries below differ from those in the screen. The call rests on the fitted dose curve; in most records, active means well fitted activation curve with a large enough effect; inconclusive means small, poorly fitted or top-dose-only effect; inactive means no such curve, though single readings can be large or run the other way. Potencies beside an inconclusive call are fits to weak or partial responses and may not hold up.

assay: qHTS for Activators of Integrin-Mediated Alleviation for Muscular Dystrophy; conditions: alpha7betagal myoblasts, beta-gal FDG fluorescence, 48 h; activation: at 38.3 µM (top of the series); further: nearly all actives have a fitted effect of over 60% in size;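 on activation: 100% = response of the positive control SU9516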
Method in brief: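 alpha7betagal+/- myoblasts (passage 13, 250/well) treated 48 h at 37C with compounds at 1:260 dilution of DMSO stock. Lysed, then beta-galactosidase activity read as FDG fluorescence (ex 480/em 540) after 30 min, with pre-read for autofluorescence.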
Potency means the concentration at half of the fitted maximal effect.

activation, inconclusive:
O=C(NCCc1ccccc1)C1CCCN(C(=O)Nc2ccc(F)cc2)C1 (stereo unspecified) -65.2% [activator]

activation, inactive:
C/C(=N\NC(=S)NCc1ccccc1)c1ccc(C#N)cc1 -2.81%
CCOC(=O)N1CCC(N2C(=O)c3ccccc3C2Nc2ccc3c(c2)OCCO3)CC1 (stereo unspecified) -20.4%
O=C(Cc1ccc(S(=O)(=O)N2CCCC2)s1)N1CCN(c2ccc(F)cc2)CC1 -9.07%
COc1cccc(-c2cc(C(=O)NCc3ccco3)c3ccccc3n2)c1 -30.6%
O=C(CCn1c(=O)oc2ccccc21)NCCCN1CCN(c2ccc(F)cc2)CC1 5.33%
CC(C)Cn1nc(NC(=O)C2CCCO2)c2cc3ccccc3nc21 (stereo unspecified) -1.79%
Cc1ccc(N/C(C(Cl)=C(Cl)Cl)=C(/Cl)[N+](=O)[O-])c(C)c1 -38.4%
COc1cccc(C=Nc2cc(C)cc(C)c2)c1O 7.96%
CCOc1c(Cl)cc(/C=N/NC(N)=S)cc1OC 3.78%
CC1CCCN(CCSc2ccc(Cl)cc2)C1 (stereo unspecified) -26.4%
Cc1ccc(C)c(N2CCN(C(=O)c3cc4c(C)nc5ccccc5c4o3)CC2)c1 -1.84%
O=C(Cc1ccccc1)NNC(=O)c1ccccc1C(=O)O -50.8%
CC1CCN(CC(=O)NCCc2ccc(F)cc2)CC1 14.2%
CCNC(=O)N(C)C[C@H]1N[C@@](C)(C(=O)OC)[C@H]2C(=O)N(Cc3ccccc3)C(=O)[C@@H]12 17.4%
O=C(c1ccc2nc(Cc3ccccc3F)oc2c1)N1CCCC1 -30.5%
CCc1ccc(Nc2nc(C)cc(C)c2C(N)=O)cc1 36%
COc1ccc(Nc2nc(OC)nc(N3CCOCC3)n2)cc1 9.64%

Potency, inconclusive:
CCc1nc2oc3ccc(C)cc3c(=O)c2cc1C(=O)OC 0.501 µM [activator, full curve, poor fit]
Cc1cc(N2C(=O)Cc3ccccc3C2=O)ccc1C(C)C 28.2 µM [activator, single point]
O=[N+]([O-])c1cc(S(=O)(=O)NC2=NCCCCC2)ccc1NCC1CCCCC1 1.78 µM [activator, single point]
O=C(Oc1ccc(N2C(=O)CCC2=O)cc1)c1ccccc1 22.4 µM [activator, single point]
O=C(NCC1CCCCC1)c1ccc(=O)[nH]c1 0.891 µM [activator, partial curve, poor fit]
CC(c1ccccc1)N(C)C(=O)CSc1nnc(C2CC2)n1C1CC1 (stereo unspecified) 2.24 µM [activator, partial curve, poor fit]
CCCCNc1nc2ccccc2n1CC(=O)Nc1c(C)cccc1CC 2.82 µM [activator, full curve, poor fit]
Cc1cc(C)nc(N2CCC(C(=O)NNC(=O)c3ccc(Cl)cc3)CC2)n1 2.82 µM [activator, single point]
COc1ccc(-c2nc(SCC(=O)Nc3cccc(S(N)(=O)=O)c3)n[nH]2)cc1 5.01 µM [activator, single point]
Clc1ccc(-[n+]2c(-c3cccc(Br)c3)[nH]c3nc4ccccc4nc32)cc1 11.2 µM [activator, single point]
CCc1sc(C(=O)Nc2nc(C)cs2)cc1C 0.501 µM [activator, partial curve, poor fit]
O=C(O)c1ccc(-n2ncc3c2/C(=C/c2cccc([N+](=O)[O-])c2)CC3)cc1 5.01 µM [activator, single point]
Cn1nnc(NC(=S)NC(=O)c2cc(Cl)ccc2Cl)n1 5.01 µM [activator, partial curve]
CCCCC(=O)Nc1ccc2c3c(cccc13)C(=O)N2CC 11.2 µM [activator, partial curve, poor fit]
COc1ccc(OC)c(NC(=O)C(C)OC(=O)c2cc3ccccc3[nH]2)c1 (stereo unspecified) 12.6 µM [activator, single point]
COc1c(-c2ccccc2)oc2c(ccc3occc32)c1=O 17.8 µM [activator, single point]
O=C(c1cc([N+](=O)[O-])ccc1Cl)N1CCc2ccccc21 8.91 µM [activator, partial curve, poor fit]
CCOc1ccc(Br)cc1S(=O)(=O)Nc1ccc(C(=O)Nc2ccccc2OC)cc1 11.2 µM [activator, partial curve, poor fit]
CCOc1ccc2c(c1)C(N(CCN1CCOCC1)C(=O)Nc1ccc(OC)cc1OC)CC(C)(C)O2 (stereo unspecified) 5.01 µM [activator, single point]
Cc1ccc(S(=O)(=O)N(C)c2c(C)ccc(S(N)(=O)=O)c2C)cc1 3.55 µM [activator, single point]
Cc1ccc(N(C)S(=O)(=O)c2ccc3c(c2)NC(=O)C(C)S3)cc1 (stereo unspecified) 5.01 µM [activator, full curve, poor fit]
CC1CC(C)(C)NC(=S)N1CC(=O)NCc1ccc(Cl)cc1 (stereo unspecified) 3.16 µM [activator, single point]
CN(C(=O)c1cccs1)c1ccc(OCC(=O)Nc2ccc(C(=O)O)cc2)cc1 5.62 µM [activator, full curve, poor fit]
O=C(CNC(=O)c1ccco1)N/N=C/c1ccc(O)cc1O 3.55 µM [activator, single point]
O=c1[nH]c2ccccc2cc1CN(Cc1ccco1)S(=O)(=O)c1ccc(F)cc1 10 µM [activator, single point]
Cc1ccc(NC(=O)C2=NNC(=O)CC2)cc1F 22.4 µM [activator, single point]
O=C(COC(=O)CNC(=O)c1ccccc1)Nc1ccc2c(c1)OCO2 5.01 µM [activator, single point]

Part of the list above in order of SMILES length, rising:
Potency, inconclusive:
O=C(NCC1CCCCC1)c1ccc(=O)[nH]c1 0.891 µM [activator, partial curve, poor fit]
O=C(Oc1ccc(N2C(=O)CCC2=O)cc1)c1ccccc1 22.4 µM [activator, single point]
COc1ccc(OC)c(NC(=O)C(C)OC(=O)c2cc3ccccc3[nH]2)c1 (stereo unspecified) 12.6 µM [activator, single point]

Following part.

Potency, active:
O=C(Nc1ccc(Cl)cc1N1CCOCC1)C1CCCCC1 7.08 µM
